# According to PubChem BioAssay AID720504 (National Center for Advancing Translational Sciences (NCATS), 2013):
# Protein sequences, listed by entry. Tags and fused reporters are not part of them.
# UniProt P53350, whole entry, looked up: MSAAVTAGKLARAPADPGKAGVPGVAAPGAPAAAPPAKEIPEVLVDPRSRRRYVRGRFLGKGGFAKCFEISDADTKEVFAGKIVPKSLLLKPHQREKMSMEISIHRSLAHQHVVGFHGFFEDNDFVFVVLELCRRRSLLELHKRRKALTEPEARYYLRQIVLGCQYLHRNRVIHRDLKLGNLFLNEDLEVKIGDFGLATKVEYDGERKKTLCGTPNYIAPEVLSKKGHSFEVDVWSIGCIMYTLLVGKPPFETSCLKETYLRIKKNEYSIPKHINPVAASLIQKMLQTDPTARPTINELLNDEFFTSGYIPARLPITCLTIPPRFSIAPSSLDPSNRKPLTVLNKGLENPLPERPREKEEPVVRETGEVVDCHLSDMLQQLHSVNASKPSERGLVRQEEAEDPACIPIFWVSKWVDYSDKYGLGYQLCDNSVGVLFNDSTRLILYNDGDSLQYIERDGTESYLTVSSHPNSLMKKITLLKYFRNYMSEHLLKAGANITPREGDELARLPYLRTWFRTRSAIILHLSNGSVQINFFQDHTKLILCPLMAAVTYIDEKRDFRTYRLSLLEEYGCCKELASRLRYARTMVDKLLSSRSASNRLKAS
# Among all 360,000 compounds or so, about 10,000 (2.8%) were called active. This list was built around the results that the source calls inconclusive (neither active nor inactive); the mix of calls is not that of the screen. Calls follow the shape of the dose curve; as a rule, active = well fitted inhibition curve with a large enough effect; inconclusive = small, poorly fitted or top-dose-only effect; inactive = flat fitted curve, though single readings scatter. Where the call is inconclusive, the potency comes from a doubtful curve fit.
# Biological target: Serine/threonine-protein kinase PLK1 (Homo sapiens) (UniProt P53350)
# Test: qHTS for Inhibitors of PLK1-PDB (polo-like kinase 1 - polo-box domain): Primary Screen; also: nearly all actives have a fitted effect of over 65% in size; as to max response, negative = inhibition: series mostly up to about 57 µM
# Settings: Plk1 PBD binding of FITC phosphopeptide, fluorescence polarization
# % is scaled to controls: 0 for no effect and ±100 for the full control effect; potency is read from the fitted curve at half-maximal effect.
SMILES,Potency,"max response, negative = inhibition"
COc1ccc(S(=O)(=O)N(CC(=O)NC2CC3CCC2C3)c2ccccc2OC)cc1 (stereo not drawn),active: 26.7 µM,
CCc1ccc(CNCCNC(=O)c2ccco2)cc1,"inconclusive: 26.7 µM [inhibitor, single point]",
COC(=O)c1c(NC(=O)c2ccc(Br)o2)sc(C)c1C,"inconclusive: 23.8 µM [inhibitor, partial curve]",
S=C(NCc1ccccc1)NNc1ccccc1,"inconclusive: 18.9 µM [inhibitor, partial curve]",
CCOc1ccc(NC(=O)Nc2cc(C(=O)O)ccc2N2CC3CC(C2)c2cccc(=O)n2C3)cc1 (stereo not drawn),"inconclusive: 26.7 µM [inhibitor, single point]",
Cc1oc2c(c1C(=O)c1ccc(Cl)cc1)C(=O)C(=O)c1ccccc1-2,"inconclusive: 9.47 µM [inhibitor, partial curve]",
Cc1cc(C)c(S(=O)(=O)Nc2ccc(Cl)cn2)c(C)c1,,inactive: -10.9%
Cc1cc2oc(=O)cc(Cn3ccnc3)c2cc1Cl,,inactive: -6.89%
Cc1cc(C(=O)OCC(=O)Nc2ccc(F)c(F)c2F)c(C)o1,"inconclusive: 37.7 µM [inhibitor, single point]",
Cc1cccc(C(=O)NC(=S)Nc2ccccc2C(=O)O)c1,"inconclusive: 21.2 µM [inhibitor, partial curve]",
CN(C(=O)CSc1cc(Cl)ccc1Cl)C1CCS(=O)(=O)C1 (stereo not drawn),"inconclusive: 23.8 µM [inhibitor, partial curve]",
O=C(N/N=C/c1coc2ccccc2c1=O)c1ccccc1,"inconclusive: 26.7 µM [inhibitor, single point]",
S=c1[nH]nc(-c2ccco2)n1/N=C/c1ccc(Cl)cc1,"inconclusive: 21.2 µM [inhibitor, partial curve]",
C#CCn1c(O)c(N=NC(=O)CNC(=O)/C=C/c2ccccc2)c2ccccc21,"inconclusive: 37.7 µM [inhibitor, single point]",
Cc1ccc2nc(Cl)c(CNCc3ccccc3)cc2c1,active: 23.8 µM,
CCCNC(=O)c1noc2c1CCc1cc(OC)ccc1-2,active: 26.7 µM,
O=C(O)/C=C/C(=O)N1CCN(c2ccccc2F)CC1,"inconclusive: 37.7 µM [inhibitor, partial curve]",
Cc1ccc(S(=O)(=O)NCC2CCC(C(=O)NCCCN3CCCC3=O)CC2)cc1 (stereo not drawn),"inconclusive: 21.2 µM [inhibitor, partial curve]",
CCOC(=O)COc1cccc2c(=O)n(CC(N)=O)ccc12,,inconclusive: -30.8% [inhibitor]
Cc1nnc(NC(=O)c2ccccc2Br)s1,,inactive: -5.98%
C=CCn1c(O)c(N=NC(=O)CNC(=O)/C=C/c2ccco2)c2ccccc21,"inconclusive: 26.7 µM [inhibitor, single point]",
Cc1cc(C)c2nc(-c3ccco3)cc(C(=O)O)c2c1,"inconclusive: 21.2 µM [inhibitor, partial curve]",
COC(=O)CCCCCN1C(=O)/C(=C\c2ccncc2)SC1=S,,inactive: -24.5%
COc1ccc(OCC(=O)Nc2cc3c(cc2C(=O)O)OCCCO3)cc1,"inconclusive: 15 µM [inhibitor, partial curve]",
Nc1c(C(=O)Nc2ccc(Cl)cc2)sc2nc(N3CCOCC3)c3c(c12)CCCC3,"inconclusive: 15 µM [inhibitor, partial curve]",

# Reformatted: results already given
SMILES	Potency	max response, negative = inhibition
Cc1cc2oc(=O)cc(Cn3ccnc3)c2cc1Cl		inactive: -6.89%
CCCNC(=O)c1noc2c1CCc1cc(OC)ccc1-2	active: 26.7 µM	

# More structures follow:

SMILES,Potency,"max response, negative = inhibition"
S=C(NCCCCNC(=S)NCc1ccccc1)NCc1ccccc1,"inconclusive: 21.2 µM [inhibitor, partial curve]",
CCOC(=O)c1sc(=S)n2c1[nH]c(=O)c1ccc(C(=O)OC)cc12,active: 6.7 µM,
N#Cc1c(-c2ccccc2)cc(-c2ccccc2)nc1SCCC(=O)O,active: 21.2 µM,
Cc1ccc(-c2cc(C(=O)NCc3ccccn3)c3ccccc3n2)cc1,,inconclusive: -32% [inhibitor]
Nc1cccc(C(=O)OCC(=O)Nc2cccc3c2C(=O)c2ccccc2C3=O)c1,"inconclusive: 29.9 µM [inhibitor, partial curve]",
O=c1[nH]c(NNC(=S)NCc2ccccc2)nc2c1C1(CCCCC1)Cc1ccccc1-2,"inconclusive: 29.9 µM [inhibitor, partial curve]",
Cc1cc(SCC(=O)N(C)c2c(N)n(Cc3ccccc3)c(=O)[nH]c2=O)nc2ccccc12,"inconclusive: 29.9 µM [inhibitor, single point]",
COC(=O)c1ccc(O)c(Sc2cc(C(=O)OC)ccc2O)c1,"inconclusive: 21.2 µM [inhibitor, single point]",
Cc1cc2nn(-c3cccc4ccccc34)nc2cc1N,"inconclusive: 9.47 µM [inhibitor, partial curve]",
Cc1ccc(C2C(C(=O)c3cc4ccccc4o3)=C(O)C(=O)N2CCN(C)C)o1 (stereo not drawn),,inconclusive: -35.9% [inhibitor]
COc1ccc(NC(=O)Nc2ccccc2SC)cc1,"inconclusive: 21.2 µM [inhibitor, partial curve]",
Cc1noc(NS(=O)(=O)c2ccc(N/C=C\C(=O)c3cccc4ccccc34)cc2)c1C,active: 23.8 µM,
O=Cc1cccn1-c1nccc(-c2ccco2)n1,,inactive: -1.2%
O=C(OCCN1C(=O)c2cccc3c(N4CCOCC4)ccc(c23)C1=O)c1ccc(Cl)cc1,"inconclusive: 26.7 µM [inhibitor, single point]",
CCOc1ccc(Nc2nc(C)cc(C)c2C#N)cc1,"inconclusive: 37.7 µM [inhibitor, single point]",
CCCCCCCCNS(=O)(=O)CCNCc1ccco1,"inconclusive: 21.2 µM [inhibitor, partial curve]",
CN(CCO)c1ccc(C=NNc2ccc([N+](=O)[O-])cc2S(=O)(=O)Nc2ccccc2C(=O)O)cc1,active: 21.2 µM,
CN(C)c1ccc(C(=S)N2CCN(C(=S)Nc3ccc(Cl)cc3)CC2)cc1,active: 6.7 µM,
Cn1cc(Br)c(C(=O)NC(=S)Nc2ccc(S(N)(=O)=O)cc2)n1,"inconclusive: 23.8 µM [inhibitor, single point]",
CCOc1ccccc1/C=N/n1c(COc2ccccc2)n[nH]c1=S,"inconclusive: 29.9 µM [inhibitor, partial curve]",
Cc1cc(NC(=O)c2ccoc2C)no1,,inconclusive: -31.1% [inhibitor]
CCN(C[C@H]1N[C@@](C)(C(=O)OC)[C@H]2C(=O)N(Cc3ccccc3)C(=O)[C@@H]12)C(=O)C1CCCCC1,"inconclusive: 16.8 µM [inhibitor, partial curve]",
COc1cc(C2CC(=O)NC3=C2C(=O)CC(C)(C)C3)ccc1O (stereo not drawn),,inactive: -6.9%
CN(C)c1ccc(C=c2c3cc(O)ccc3n3c2cc(-c2ccccc2)[n+]3C)cc1,"inconclusive: 37.7 µM [inhibitor, single point]",
O=C(CS(=O)(=O)c1cn(CC(=O)N2CCCC2)c2ccccc12)Nc1ccccc1,,inactive: -4.97%

SMILES,Potency,"max response, negative = inhibition"
CC(=O)Nc1ccc(SCC(=O)Nc2ccc3c(c2)OCCO3)cc1,active: 11.9 µM,
O=c1[nH]c2ccc(N=Cc3c(O)ccc4cc(Br)ccc34)cc2[nH]1,"inconclusive: 16.8 µM [inhibitor, partial curve]",
CCCCCn1c(SCCC(C)C)nc2c1c(=O)[nH]c(=O)n2C,active: 23.8 µM,
N#C/C(=C/c1ccccc1)C(=O)NCc1ccccc1,,inactive: -9.62%
Cc1ccccc1-n1c(SCc2c(C)noc2C)nnc1-c1cccnc1,"inconclusive: 23.8 µM [inhibitor, partial curve]",
FC(F)Oc1ccc(NC(=S)NCc2nc3ccccc3[nH]2)cc1,,inactive: -14%
CCc1nnc(NS(=O)(=O)c2ccc(N/C=C\C(=O)c3cccc4ccccc34)cc2)s1,"inconclusive: 29.9 µM [inhibitor, single point]",
C[n+]1ccccc1N1CCN(c2ccccc2Cl)CC1,active: 26.7 µM,
CCc1nc(SCC(=O)Nc2ccc(N(C)C)cc2)c2ccccc2n1,,inactive: -0.0258%
Cn1c(=O)c2ncn(CC(=O)NCCOc3ccc(C(C)(C)C)cc3)c2n(C)c1=O,,inactive: -11.5%
Cc1ccc(NC(=O)CC2SC(=O)NC2=O)cc1 (stereo not drawn),"inconclusive: 26.7 µM [inhibitor, single point]",
Cc1cc(C)n2c(SCC(O)=C(C#N)c3nc4ccccc4[nH]3)nnc2n1,,inactive: -26.3%
CC(C)Oc1cccc(C(=O)NC(=S)Nc2ccc3c4c(cccc24)CC3)c1,,inactive: 0.772%
Cc1ccc(NC(=O)c2cc(C)nc3ccccc23)cc1,,inactive: -0.841%
CC(=O)Oc1cccc(/C=c2\sc3nc(-c4ccco4)nn3c2=O)c1,"inconclusive: 18.9 µM [inhibitor, partial curve]",
CC(=O)Nc1ccc(NC(C)=O)s1,"inconclusive: 21.2 µM [inhibitor, single point]",
NC(=O)c1cc(S(=O)(=O)N2CCc3ccccc3C2)cs1,active: 21.2 µM,
OCCNc1nc(Nc2ccc(Cl)c(Cl)c2)nc2ccccc12,,inactive: -0.568%
N#Cc1nc(-c2ccc(Cl)cc2)oc1NCC1CCCO1 (stereo not drawn),,inactive: -10.2%
CC(=O)Nc1ccc(C(=O)N/N=C/c2cc(Br)cc(Br)c2O)cc1,"inconclusive: 37.7 µM [inhibitor, single point]",
N#Cc1ccc(Oc2cnccn2)cc1,,inactive: 2.36%
Brc1ccc2nc(-c3ccco3)c(CC3CCCCC3)n2c1,"inconclusive: 26.7 µM [inhibitor, partial curve]",
S=c1[nH]nc(-c2cc(-c3ccccc3)n[nH]2)n1/N=C/c1c2ccccc2cc2ccccc12,"inconclusive: 21.2 µM [inhibitor, partial curve]",
